From the supplement of paper PMC10849652
The list shows a part of the results.

Protein sequences, listed by entry. Tags and fused reporters are not part of them. Lines headed by an entry give the natural chain unless they say otherwise; changes in a name come on top.
UniProt A6NK58: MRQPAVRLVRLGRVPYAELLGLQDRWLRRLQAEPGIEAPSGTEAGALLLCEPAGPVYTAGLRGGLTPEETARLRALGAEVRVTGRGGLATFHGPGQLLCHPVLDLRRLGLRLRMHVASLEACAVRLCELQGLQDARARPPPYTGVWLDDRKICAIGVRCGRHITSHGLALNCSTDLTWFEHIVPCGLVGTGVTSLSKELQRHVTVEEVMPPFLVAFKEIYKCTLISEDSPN
UniProt Q6UWP7: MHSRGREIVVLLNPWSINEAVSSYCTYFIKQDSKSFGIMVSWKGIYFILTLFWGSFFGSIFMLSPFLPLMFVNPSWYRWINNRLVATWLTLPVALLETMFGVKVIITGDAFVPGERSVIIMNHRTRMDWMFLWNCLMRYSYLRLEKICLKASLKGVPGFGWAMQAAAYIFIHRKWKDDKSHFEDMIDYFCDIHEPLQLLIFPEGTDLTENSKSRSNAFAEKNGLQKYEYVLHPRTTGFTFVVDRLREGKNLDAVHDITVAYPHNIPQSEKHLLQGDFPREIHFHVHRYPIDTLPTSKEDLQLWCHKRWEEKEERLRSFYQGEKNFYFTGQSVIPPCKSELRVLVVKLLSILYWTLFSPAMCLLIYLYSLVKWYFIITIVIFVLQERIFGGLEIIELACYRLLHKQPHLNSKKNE
UniProt O75427: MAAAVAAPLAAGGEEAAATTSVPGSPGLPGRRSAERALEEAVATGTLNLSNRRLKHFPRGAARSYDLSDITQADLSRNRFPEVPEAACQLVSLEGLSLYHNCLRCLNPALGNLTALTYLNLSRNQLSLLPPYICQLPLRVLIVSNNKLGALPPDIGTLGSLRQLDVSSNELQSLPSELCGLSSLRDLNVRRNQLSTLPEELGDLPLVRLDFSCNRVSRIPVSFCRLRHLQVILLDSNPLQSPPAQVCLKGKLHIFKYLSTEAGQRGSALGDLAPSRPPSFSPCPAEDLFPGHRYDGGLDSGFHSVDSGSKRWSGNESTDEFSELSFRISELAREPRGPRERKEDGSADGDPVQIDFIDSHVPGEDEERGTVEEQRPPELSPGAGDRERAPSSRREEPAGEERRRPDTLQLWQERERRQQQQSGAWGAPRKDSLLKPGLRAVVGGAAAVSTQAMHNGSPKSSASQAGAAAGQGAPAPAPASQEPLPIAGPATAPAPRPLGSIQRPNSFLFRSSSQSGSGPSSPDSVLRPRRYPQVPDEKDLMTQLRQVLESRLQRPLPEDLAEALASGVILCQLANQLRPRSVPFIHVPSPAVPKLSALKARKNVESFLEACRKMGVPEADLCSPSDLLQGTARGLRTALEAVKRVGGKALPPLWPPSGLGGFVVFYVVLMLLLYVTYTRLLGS
UniProt P23490: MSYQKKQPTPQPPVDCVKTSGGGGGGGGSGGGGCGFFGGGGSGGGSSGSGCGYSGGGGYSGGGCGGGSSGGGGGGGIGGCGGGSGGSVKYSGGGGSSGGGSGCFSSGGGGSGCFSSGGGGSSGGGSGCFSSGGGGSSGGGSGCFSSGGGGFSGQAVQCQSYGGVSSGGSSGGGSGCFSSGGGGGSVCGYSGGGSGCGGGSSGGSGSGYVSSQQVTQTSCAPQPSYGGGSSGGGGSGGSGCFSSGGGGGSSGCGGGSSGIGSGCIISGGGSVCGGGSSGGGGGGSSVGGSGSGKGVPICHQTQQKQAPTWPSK
UniProt Q13094: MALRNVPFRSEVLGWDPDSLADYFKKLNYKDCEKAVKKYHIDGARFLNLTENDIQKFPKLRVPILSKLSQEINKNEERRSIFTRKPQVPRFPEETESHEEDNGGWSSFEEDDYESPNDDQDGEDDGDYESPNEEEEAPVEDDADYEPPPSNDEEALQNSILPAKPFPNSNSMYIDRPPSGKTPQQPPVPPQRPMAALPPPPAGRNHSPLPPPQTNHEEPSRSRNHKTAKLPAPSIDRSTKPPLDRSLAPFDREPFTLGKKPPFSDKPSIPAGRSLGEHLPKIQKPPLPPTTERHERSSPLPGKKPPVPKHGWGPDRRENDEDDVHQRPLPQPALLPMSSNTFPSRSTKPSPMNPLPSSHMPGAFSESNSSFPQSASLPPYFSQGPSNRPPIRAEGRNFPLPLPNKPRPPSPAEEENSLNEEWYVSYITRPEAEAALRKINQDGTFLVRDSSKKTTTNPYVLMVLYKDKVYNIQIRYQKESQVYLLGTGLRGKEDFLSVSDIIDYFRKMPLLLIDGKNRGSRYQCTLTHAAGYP
UniProt Q8N1G4: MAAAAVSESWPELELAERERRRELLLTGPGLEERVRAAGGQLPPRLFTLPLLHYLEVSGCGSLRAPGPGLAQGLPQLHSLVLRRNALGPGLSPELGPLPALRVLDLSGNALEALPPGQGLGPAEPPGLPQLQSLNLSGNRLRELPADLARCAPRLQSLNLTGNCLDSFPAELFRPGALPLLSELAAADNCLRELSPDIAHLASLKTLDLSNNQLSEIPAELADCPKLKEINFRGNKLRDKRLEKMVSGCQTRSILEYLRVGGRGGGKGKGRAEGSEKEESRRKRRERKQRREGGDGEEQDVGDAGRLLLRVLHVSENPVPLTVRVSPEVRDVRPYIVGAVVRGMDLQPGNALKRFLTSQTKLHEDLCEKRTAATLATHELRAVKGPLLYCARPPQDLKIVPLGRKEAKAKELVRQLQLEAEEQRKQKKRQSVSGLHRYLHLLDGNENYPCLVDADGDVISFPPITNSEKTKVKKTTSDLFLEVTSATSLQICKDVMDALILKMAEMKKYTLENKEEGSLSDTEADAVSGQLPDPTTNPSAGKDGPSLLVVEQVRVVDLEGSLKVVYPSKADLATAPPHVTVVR
UniProt Q9BT23: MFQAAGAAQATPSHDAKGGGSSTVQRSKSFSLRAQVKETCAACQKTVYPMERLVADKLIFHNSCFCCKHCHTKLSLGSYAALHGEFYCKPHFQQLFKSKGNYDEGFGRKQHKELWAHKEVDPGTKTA
UniProt P53671: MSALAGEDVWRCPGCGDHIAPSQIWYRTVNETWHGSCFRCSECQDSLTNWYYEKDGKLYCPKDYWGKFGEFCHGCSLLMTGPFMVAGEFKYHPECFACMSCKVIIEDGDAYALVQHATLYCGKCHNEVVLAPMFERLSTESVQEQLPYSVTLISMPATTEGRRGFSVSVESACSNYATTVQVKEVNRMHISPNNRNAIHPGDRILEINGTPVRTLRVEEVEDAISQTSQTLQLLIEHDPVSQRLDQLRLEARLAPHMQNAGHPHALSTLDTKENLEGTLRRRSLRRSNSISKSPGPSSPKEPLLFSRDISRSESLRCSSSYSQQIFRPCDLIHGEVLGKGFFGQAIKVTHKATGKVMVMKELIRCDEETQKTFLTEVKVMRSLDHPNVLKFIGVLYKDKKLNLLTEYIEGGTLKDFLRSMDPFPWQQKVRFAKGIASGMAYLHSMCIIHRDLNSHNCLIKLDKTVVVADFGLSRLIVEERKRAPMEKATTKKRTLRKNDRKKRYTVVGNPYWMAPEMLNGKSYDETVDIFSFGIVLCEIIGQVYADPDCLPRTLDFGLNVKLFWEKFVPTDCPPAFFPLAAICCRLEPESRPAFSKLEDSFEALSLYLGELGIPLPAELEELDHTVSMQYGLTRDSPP
UniProt Q9NT99: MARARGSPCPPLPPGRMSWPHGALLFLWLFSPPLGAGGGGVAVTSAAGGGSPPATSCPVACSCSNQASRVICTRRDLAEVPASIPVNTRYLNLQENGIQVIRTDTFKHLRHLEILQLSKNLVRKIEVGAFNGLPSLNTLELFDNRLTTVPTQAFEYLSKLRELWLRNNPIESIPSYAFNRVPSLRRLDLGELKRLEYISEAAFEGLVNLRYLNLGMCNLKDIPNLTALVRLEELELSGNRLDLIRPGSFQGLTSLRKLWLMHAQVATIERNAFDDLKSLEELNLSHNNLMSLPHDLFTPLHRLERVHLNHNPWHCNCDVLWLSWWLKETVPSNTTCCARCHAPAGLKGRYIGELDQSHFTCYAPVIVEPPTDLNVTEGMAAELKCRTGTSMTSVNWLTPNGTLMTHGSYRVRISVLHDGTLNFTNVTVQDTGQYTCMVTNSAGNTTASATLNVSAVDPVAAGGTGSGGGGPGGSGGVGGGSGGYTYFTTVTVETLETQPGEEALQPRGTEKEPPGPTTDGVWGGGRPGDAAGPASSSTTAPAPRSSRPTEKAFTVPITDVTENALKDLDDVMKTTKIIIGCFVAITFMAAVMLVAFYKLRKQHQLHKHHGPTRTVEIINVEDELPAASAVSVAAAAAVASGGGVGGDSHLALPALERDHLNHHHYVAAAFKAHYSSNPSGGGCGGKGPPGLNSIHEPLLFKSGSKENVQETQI
UniProt O00214: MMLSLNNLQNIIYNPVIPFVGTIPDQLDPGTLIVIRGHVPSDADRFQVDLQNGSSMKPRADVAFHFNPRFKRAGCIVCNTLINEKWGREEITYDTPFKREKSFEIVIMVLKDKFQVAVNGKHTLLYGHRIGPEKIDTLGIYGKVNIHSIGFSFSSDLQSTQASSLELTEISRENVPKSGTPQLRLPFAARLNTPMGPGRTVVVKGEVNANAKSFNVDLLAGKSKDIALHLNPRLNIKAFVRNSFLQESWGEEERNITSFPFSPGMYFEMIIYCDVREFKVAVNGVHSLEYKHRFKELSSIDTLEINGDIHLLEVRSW
UniProt P49257: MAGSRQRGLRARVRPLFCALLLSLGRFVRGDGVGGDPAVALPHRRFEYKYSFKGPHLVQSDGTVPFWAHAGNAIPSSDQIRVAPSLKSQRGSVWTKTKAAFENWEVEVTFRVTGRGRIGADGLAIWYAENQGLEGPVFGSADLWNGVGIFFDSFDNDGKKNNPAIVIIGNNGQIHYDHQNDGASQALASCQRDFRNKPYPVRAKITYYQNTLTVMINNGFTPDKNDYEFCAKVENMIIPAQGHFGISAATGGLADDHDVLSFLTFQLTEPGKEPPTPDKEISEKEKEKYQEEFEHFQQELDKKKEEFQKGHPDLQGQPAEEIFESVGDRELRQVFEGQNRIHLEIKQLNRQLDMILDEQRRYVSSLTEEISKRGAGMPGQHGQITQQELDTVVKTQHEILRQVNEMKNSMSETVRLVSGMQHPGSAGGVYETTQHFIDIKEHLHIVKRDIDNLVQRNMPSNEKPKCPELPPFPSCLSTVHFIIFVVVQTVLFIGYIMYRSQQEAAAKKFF
UniProt Q8IWU2: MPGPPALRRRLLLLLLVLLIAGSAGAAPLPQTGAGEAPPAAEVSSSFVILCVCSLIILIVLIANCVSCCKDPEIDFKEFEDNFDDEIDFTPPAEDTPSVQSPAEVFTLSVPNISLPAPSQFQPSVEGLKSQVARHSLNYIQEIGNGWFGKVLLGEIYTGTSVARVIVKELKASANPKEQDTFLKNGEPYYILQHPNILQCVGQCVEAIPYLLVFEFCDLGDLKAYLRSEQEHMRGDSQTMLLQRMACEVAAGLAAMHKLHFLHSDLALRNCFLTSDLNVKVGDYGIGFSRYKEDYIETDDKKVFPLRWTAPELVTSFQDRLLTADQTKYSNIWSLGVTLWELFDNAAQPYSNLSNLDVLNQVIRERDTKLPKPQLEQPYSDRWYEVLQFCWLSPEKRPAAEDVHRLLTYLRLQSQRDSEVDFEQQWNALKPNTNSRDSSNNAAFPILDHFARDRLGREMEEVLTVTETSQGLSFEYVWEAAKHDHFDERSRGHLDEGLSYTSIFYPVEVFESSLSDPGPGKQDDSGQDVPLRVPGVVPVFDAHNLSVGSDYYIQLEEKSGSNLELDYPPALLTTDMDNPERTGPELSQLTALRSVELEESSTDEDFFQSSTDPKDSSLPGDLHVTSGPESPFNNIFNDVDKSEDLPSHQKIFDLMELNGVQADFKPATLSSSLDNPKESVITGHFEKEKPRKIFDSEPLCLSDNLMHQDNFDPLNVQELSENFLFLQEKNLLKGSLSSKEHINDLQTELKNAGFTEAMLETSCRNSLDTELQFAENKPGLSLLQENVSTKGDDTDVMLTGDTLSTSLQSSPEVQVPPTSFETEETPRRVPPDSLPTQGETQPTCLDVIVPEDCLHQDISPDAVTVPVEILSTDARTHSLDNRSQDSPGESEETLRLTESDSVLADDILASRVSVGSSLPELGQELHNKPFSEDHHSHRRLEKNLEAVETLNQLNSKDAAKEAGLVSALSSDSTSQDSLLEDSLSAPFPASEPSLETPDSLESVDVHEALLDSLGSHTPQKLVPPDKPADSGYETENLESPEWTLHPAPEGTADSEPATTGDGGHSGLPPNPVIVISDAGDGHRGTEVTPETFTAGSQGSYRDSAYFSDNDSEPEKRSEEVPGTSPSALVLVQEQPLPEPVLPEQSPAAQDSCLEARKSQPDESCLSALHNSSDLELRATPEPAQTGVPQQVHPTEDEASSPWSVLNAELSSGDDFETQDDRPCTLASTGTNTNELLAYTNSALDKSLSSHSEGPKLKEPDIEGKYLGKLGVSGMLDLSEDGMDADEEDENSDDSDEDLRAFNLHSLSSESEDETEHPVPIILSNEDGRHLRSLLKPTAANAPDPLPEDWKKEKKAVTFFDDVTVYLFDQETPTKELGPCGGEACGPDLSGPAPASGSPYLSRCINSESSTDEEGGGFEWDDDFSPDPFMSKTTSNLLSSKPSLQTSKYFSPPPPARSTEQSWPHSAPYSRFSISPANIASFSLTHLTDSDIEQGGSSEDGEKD

compound: CC1=C(SC2=C1C(=N[C@H](C3=NN=C(N32)C)CC(=O)N)C4=CC=C(C=C4)Cl)C; test: log2 fold change, soluble protein after heating vs DMSO (PISA); higher = thermal stabilisation; K562 lysate, 10 uM; active = over 0.2 and 3.5 SD of the protein, either way, in both replicates (recomputed)
Method in brief: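 The values are log-two fold changes in thermal stability compared with solvent controls and come from duplicates. They were obtained by TMTpro 16plex LC-MS/MS, with channel sums equalised, on the supernatant after 21,000xg for 90 min. That supernatant came from crude K562 extract at 1 mg/mL protein treated with 10 μM compound for 30 min, heated for 3 min across 48°C-58°C, pooled and brought to 0.5% NP-40 at 4°C.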

| Target | log2 fold change |
| --- | --- |
| LINS1 (UniProt Q8NG48) | inactive: -0.007 |
| LLPH (UniProt Q9BRT6) | inactive: 0.061 |
| LIPT2 (UniProt A6NK58) | inactive: 0.131 |
| LCLAT1 (UniProt Q6UWP7) | inactive: 0.015 |
| LSM14B (UniProt Q9BX40) | inactive: 0.067 |
| LIG4 (UniProt P49917) | inactive: 0.083 |
| LPCAT2 (UniProt Q7L5N7) | inactive: 0.111 |
| LRCH4 (UniProt O75427) | inactive: -0.035 |
| LIMS1 isoform 3 (UniProt P48059) | inactive: 0.006 |
| LHFPL2 (UniProt Q6ZUX7) | inactive: 0.138 |
| LSM14B isoform 2 (UniProt Q9BX40) | inactive: 0.023 |
| LIMD1 (UniProt Q9UGP4) | inactive: -0.019 |
| LOR (UniProt P23490) | inactive: 0.012 |
| LCP2 (UniProt Q13094) | inactive: -0.017 |
| LIN7C (UniProt Q9NUP9) | inactive: 0.029 |
| LSM3 (UniProt P62310) | inactive: 0.045 |
| LMNA (UniProt P02545) | inactive: -0.008 |
| LDAH isoform 2 (UniProt Q9H6V9) | inactive: 0.018 |
| LRRC47 (UniProt Q8N1G4) | inactive: 0.021 |

| Target | log2 fold change |
| --- | --- |
| LLGL1 (UniProt Q15334) | inactive: 0.052 |
| LIMD2 (UniProt Q9BT23) | inactive: 0.041 |
| LIMK2 isoform 3 (UniProt P53671) | inactive: -0.123 |
| LDB1 (UniProt Q86U70) | inactive: -0.009 |
| LMNB1 (UniProt P20700) | inactive: 0 |
| LRRC41 (UniProt Q15345) | inactive: 0.03 |
| LRFN1 (UniProt Q9P244) | inactive: 0.085 |
| LRRC4B (UniProt Q9NT99) | inactive: -0.015 |
| LGALS8 isoform 2 (UniProt O00214) | inactive: -0.019 |
| LRSAM1 (UniProt Q6UWE0) | inactive: -0.007 |
| LMAN1 (UniProt P49257) | inactive: 0.005 |
| LDHC (UniProt P07864) | inactive: -0.463 |
| LRRC20 (UniProt Q8TCA0) | inactive: -0.107 |
| LIN37 (UniProt Q96GY3) | inactive: 0.086 |
| LRBA, A0A494BZW2 | inactive: -0.013 |
| LRRC40 (UniProt Q9H9A6) | inactive: 0.003 |
| LMTK2 (UniProt Q8IWU2) | inactive: -0.022 |
| LEPROTL1 isoform 2 (UniProt O95214) | inactive: -0.171 |
| LARS (UniProt Q9P2J5) | inactive: -0.007 |

No new results follow: an excerpt of the list.

| Target | log2 fold change |
| --- | --- |
| LRFN1 (UniProt Q9P244) | inactive: 0.085 |
| LRRC4B (UniProt Q9NT99) | inactive: -0.015 |
